Data source: PubChem BioAssay AID1224826 (NIAID, 2016)
Test: 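Genes that change LPS-induced Tnf promoter activity in mouse macrophages when knocked down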 (primary screen). Cell system: RAW264.7 G9 macrophages from mouse bearing reporters for p65 (GFP) and the Tnf promoter (mCherry). Reagents: siRNA pool against mouse genes, 100 nM. Duration: 16 h of LPS stimulation, after 2 days of siRNA transfection. Conditions: bacterial lipopolysaccharide (Salmonella minnesota R595), 10 ng/ml. Detection: 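Nuclear mCherry signal of the Tnf promoter reporter measured by imaging after background removal, scaled to each plate median and turned into robust z-scores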. Reading the numbers: Tnf reporter robust z-score: higher = stronger Tnf promoter reporter signal after LPS. Call rule: 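Called active when robust z-score is at most -1.3, matching the median of the Tlr4 knock-down control, or over 3; control wells and wells with under 50 cells never active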. Meaning of the calls: active = Tnf reporter clearly lowered or raised; inactive = no clear change in Tnf reporter.
The deposit covers about 17,000 reagents; below is an unselected part. About 1,110 of them (6.6%) count as active. 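Active means lowered or raised reporter signal; replicate intensities are raw and not normalised per plate.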 Further read-outs or replicates are left out here.

Gene	Tnf reporter robust z-score	fewer than 50 cells in well	call
Tm7sf2	0.11	enough cells in well	inactive
Tcta	-0.1	enough cells in well	inactive
Trim11		fewer than 50 cells per well; well left out of calls	inactive
Krtap4-13		fewer than 50 cells per well; well left out of calls	inactive
Tceal9	-0.53	enough cells in well	inactive
Slc29a2	-1.76	enough cells in well	active
Col4a3	-0.25	enough cells in well	inactive
Slc22a2	-0.79	enough cells in well	inactive
Fam133b	0.64	enough cells in well	inactive
Fthl17e	2.5	enough cells in well	inactive
Iah1	-1.06	enough cells in well	inactive
Lysmd1	-0.6	enough cells in well	inactive
Golga5	-0.44	enough cells in well	inactive
Acat1	0.04	enough cells in well	inactive
1600014C10Rik	2.03	enough cells in well	inactive
Zfp353-ps	0.02	enough cells in well	inactive
Dok2	-0.54	enough cells in well	inactive
Gm4792	3.46	enough cells in well	active
Cenpq		fewer than 50 cells per well; well left out of calls	inactive
Krt2	0.77	enough cells in well	inactive
Washc2	-1.77	enough cells in well	active
Mal	-0.54	enough cells in well	inactive
Il1rl1	-0.16	enough cells in well	inactive
Rex1bd		fewer than 50 cells per well; well left out of calls	inactive
Epc2	-1.03	enough cells in well	inactive
Pde8a	-1.16	enough cells in well	inactive
Chd3	-1.04	enough cells in well	inactive
Slc9a6	-0.8	enough cells in well	inactive
Gpr20	-0.61	enough cells in well	inactive
Mphosph9	0.4	enough cells in well	inactive
Zfp286	-1.22	enough cells in well	inactive
Rps27	-0.49	enough cells in well	inactive
B9d2	0.29	enough cells in well	inactive
Ankrd61	-0.26	enough cells in well	inactive
Ly6g5b	-0.88	enough cells in well	inactive
Gabra4	-0.38	enough cells in well	inactive
Sprr1b	0.59	enough cells in well	inactive
Gprc5d	-0.6	enough cells in well	inactive
Bhlhe40	-1.1	enough cells in well	inactive
Abhd10	-1.25	enough cells in well	inactive

Copied from the list:
Under “fewer than 50 cells in well”, Tm7sf2 is entered as enough cells in well
Lysmd1, call: inactive
Ly6g5b, call → inactive
Entry of Iah1 under “fewer than 50 cells in well”: enough cells in well
Result of Zfp353-ps in “Tnf reporter robust z-score”: 0.02
